Results published in patent publication US20200129450A1, “COMPOSITION COMPRISING OSMUNDACETONE OR PHARMACEUTICALLY ACCEPTABLE SALT THEREOF FOR PREVENTING OR TREATING BONE DISEASE” (KORPHARM CO., LTD., priority 2016, published 2020).

System: B16F10 mouse melanoma
Test: MTT assay cytotoxicity
Type: cell-based
Settings: B16F10, 24 hours
Description: HaCaT human epidermal keratinocytes, # ATCC PCS-200-011) were incubated using Dulbecco's modified Eagle's medium (DMEM, # DMEM-HPA, Capricorn Scientific, Ebsdorfergrund, Germany) in the conditions of 37° C. and 5% CO2. NIH3T3 mouse embryo fibroblasts (# KCLB 21658), RAW264.7 murine macrophages (preosteoclast cell line, # KCLB 40071), HCT116 human colon cancer cells (# KCLB 10247), PC3 human prostate adenocarcinoma cells (# KCLB 21435), HT1080 human fibrosarcoma cells (# KCLB 1121), and B16F10 mouse malignant melanoma cells (# KCLB 80008) were purchased from the Korean Cell Line Bank, and incubated using DMEM in the conditions of 37° C. and 5% C02.
The compound isolated from Osmunda japonica, prepared in section 1 of <Example 1>, was investigated for cytotoxicity using MTT assay.
MTT assay was as follows.
Cells were incubated at 1×10^3 cells/well in a 96-well plate containing DMEM with 10% fetal bovine serum (FBS) at 5% CO2 and 37° C., and then osmundacetone was added to the cell medium, followed by incubation for 24 hours. Thereafter, 100 μL of MTT (0.5 mg/ml PBS) was administered, followed by incubation for 2 hours. […] After incubation for 10 minutes, the absorbance was measured using a microplate reader (SPCTRA MAX 340PC, Molecular Devices, USA) at 570 nm. The absorbance is an indicator showing the number of living cells, and calculated by the following equation. […]

NCCCC(O)(P(=O)(O)O)P(=O)(O)O [Fosamax, alendronate, reference compound]
LD50 (MTT assay): >5,000 μM
